Test results taken from publication PMC11449124.
Results are given in words; binding and its absence hold for the method and conditions named. In cells and extracts the contact can be indirect. Some entries that bind do so weakly or less than the wild type.

Protein sequences, listed by entry. Tags and fused reporters are not part of them. Lines headed by an entry give the natural chain unless they say otherwise; changes in a name come on top.
UniProt P84077: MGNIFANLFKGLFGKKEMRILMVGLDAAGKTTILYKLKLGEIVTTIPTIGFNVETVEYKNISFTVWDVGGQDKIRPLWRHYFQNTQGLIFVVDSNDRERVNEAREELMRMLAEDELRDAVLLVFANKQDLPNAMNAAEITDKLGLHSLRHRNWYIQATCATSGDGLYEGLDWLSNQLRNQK
UniProt P50851: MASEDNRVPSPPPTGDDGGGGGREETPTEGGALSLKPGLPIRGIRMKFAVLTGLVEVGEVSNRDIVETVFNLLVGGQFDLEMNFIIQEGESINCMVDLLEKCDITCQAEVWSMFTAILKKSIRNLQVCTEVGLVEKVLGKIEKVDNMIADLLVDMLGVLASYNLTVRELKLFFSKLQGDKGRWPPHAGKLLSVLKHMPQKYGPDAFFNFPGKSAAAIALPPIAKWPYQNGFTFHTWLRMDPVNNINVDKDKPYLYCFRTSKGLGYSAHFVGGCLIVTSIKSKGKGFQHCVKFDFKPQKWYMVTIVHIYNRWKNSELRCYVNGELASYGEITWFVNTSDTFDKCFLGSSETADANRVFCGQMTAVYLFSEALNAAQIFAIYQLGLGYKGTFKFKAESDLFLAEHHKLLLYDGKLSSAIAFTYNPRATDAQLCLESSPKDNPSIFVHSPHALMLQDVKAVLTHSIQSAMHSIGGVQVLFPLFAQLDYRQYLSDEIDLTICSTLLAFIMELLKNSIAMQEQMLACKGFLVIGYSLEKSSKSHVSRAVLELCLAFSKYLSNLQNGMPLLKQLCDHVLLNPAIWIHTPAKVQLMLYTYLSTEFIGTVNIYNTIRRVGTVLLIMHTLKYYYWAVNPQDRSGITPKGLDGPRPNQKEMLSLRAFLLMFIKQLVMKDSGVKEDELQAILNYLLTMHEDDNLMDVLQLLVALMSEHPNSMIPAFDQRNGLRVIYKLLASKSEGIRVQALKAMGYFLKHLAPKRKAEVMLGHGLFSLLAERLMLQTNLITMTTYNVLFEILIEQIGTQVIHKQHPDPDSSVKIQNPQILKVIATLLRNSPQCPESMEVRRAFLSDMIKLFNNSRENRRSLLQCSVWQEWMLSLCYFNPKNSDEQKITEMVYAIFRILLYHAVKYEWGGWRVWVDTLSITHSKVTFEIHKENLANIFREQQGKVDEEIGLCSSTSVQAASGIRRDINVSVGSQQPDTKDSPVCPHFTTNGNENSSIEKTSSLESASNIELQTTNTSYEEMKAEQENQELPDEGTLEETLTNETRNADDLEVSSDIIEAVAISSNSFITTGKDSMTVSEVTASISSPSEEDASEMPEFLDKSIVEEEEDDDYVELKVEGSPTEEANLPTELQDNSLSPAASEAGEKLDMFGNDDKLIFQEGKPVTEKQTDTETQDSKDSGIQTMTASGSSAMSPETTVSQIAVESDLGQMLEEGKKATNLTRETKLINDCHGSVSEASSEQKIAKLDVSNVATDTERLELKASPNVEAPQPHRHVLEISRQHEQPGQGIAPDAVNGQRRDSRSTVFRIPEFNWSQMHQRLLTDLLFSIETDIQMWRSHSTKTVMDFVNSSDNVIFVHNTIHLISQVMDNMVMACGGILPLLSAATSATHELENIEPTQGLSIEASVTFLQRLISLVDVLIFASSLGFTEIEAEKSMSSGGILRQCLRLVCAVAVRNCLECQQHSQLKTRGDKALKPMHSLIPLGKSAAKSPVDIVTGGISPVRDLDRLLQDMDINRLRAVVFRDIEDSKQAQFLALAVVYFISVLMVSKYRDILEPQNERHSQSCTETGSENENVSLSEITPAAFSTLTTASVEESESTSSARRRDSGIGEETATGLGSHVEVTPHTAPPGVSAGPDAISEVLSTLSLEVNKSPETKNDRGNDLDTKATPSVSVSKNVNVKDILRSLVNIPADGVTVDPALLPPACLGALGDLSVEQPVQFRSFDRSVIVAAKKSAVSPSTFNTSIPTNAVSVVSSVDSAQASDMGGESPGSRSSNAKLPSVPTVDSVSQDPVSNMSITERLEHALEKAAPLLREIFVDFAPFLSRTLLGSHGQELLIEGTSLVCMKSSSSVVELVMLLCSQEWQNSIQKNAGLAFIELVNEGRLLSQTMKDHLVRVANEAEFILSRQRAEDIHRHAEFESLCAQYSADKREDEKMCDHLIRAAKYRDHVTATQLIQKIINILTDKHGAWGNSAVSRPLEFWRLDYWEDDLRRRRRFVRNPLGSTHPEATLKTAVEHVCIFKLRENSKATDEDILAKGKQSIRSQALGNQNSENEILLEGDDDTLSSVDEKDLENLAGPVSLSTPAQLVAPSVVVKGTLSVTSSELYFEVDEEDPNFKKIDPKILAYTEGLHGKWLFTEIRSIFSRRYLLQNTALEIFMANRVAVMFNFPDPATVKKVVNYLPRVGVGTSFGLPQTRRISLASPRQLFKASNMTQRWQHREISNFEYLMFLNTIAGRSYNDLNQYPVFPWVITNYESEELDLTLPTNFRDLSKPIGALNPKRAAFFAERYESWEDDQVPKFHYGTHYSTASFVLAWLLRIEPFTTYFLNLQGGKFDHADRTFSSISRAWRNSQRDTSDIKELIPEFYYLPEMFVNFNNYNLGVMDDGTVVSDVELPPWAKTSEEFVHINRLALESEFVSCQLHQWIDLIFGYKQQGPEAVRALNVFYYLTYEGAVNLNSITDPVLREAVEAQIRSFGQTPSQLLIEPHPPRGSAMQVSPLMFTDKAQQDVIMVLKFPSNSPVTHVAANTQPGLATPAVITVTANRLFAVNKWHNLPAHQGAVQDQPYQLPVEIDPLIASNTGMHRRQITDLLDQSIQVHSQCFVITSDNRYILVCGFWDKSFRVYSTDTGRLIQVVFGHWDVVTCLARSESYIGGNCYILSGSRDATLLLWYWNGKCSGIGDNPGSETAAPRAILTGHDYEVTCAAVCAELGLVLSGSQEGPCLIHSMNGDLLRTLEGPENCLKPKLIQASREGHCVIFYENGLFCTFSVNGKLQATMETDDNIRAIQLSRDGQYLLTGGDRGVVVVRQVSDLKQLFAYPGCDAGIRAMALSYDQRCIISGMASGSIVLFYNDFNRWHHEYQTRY

Columns and labels:
Test in all cases: co-IP; Arf1-EGFP constructs captured from transfected HEK293A lysates on GFP-trap magnetic beads, endogenous LRBA detected by immunoblot; 20 mM Tris HCl pH 7.5, 150 mM NaCl, 5 mM MgCl2, 1 mM CaCl2, CHAPS; 4°C, 2 h; 100 nM GTP (Arf1-EGFP, I46S I49S), 100 nM GTPgammaS (Q71L), 100 nM GDPbetaS (T31N)
Arf1-EGFP = Arf1-EGFP (UniProt P84077)
[1] = molecular target: Arf1^T31N-EGFP (dominant-negative) (UniProt P84077)
Arf1^(I46S, I49S)-EGFP = Arf1^(I46S, I49S)-EGFP (UniProt P84077)
[2] = molecular target: Arf1^Q71L-EGFP (constitutively active) (UniProt P84077)

- binding (Arf1-EGFP): binds
- binding [1]: binds
- binding (Arf1^(I46S, I49S)-EGFP): binds
- binding [2]: binds
Substance: lipopolysaccharide responsive beige-like anchor protein (LRBA) (from UniProt P50851 1-2863)
